A short description of this experiment: qHTS Assay for Lipid Storage Modulators in Drosophila S3 Cells.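 For cell number change: cells counted by Cell Tracker Red CMTPX staining in the red channel.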 The settings on record: BODIPY lipid droplet fluorescence, 18-24 h; for cell number change: measured here: cell count max response, cells fed with added oleic acid. The method, boiled down: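 Drosophila S3 cells loaded with oleic acid (400 uM, as added) and compounds at several concentrations; lipid droplets imaged by 488-nm laser-scanning cytometry, 500–530 nm intensity and object ratio to cell channel. Percent activity normalized to 20 uM Triacsin C.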
For orientation: In qHTS, concentration-response curves come from the screen itself.

Where [1] appears, read: measured here: lipid fluorescence (Fed channel) AC50, cells fed with added oleic acid.
Where [2] appears, read: measured here: cell number channel AC50, cells fed with added oleic acid.

Each structure is given as a SMILES string. The list shows a part of the results. The main result of the screen is listed elsewhere. These columns were measured beside it and carry no call. Most of these compounds were active or inconclusive in the main read-out, so they are no random draw. Potencies come from curve fits of mixed quality, noted in brackets.

A word on the AC50: it is the concentration at which the activity in the assay is half-maximal. Low values mean greater potency, high ones weaker potency. Take `Cc1sc(NC(=O)CSc2nnc(-c3ccc(F)cc3)o2)c(C#N)c1C`: the cell number change was -1.87%. Further, the half-maximal activity concentration (AC50) under setting [1] is 0.58 µM [rising, full curve]. On to `CCCCC(=O)Nc1nnc(S(=O)(=O)N(CC)c2ccccc2)s1`, for which the cell number change is 12.6%. The AC50 under setting [2] is 4.61 µM [rising, single point]. In addition, under setting [1], the half-maximal activity concentration (AC50) is 20.6 µM [rising, single point]. For `O=C(CCN1C(=O)C2C3C=CC(C3)C2C1=O)NCc1cccnc1` (centres undefined), the cell number change worked out at 8.46%. On to `O=C(CSc1nncn1-c1ccccc1)Nc1ccccc1`, for which the cell number change came out at 4.67%. Also, the concentration at half-maximal activity (AC50) under setting [1] was 29.1 µM [rising, single point]. For the compound `Cc1ccc(S(=O)(=O)N(CCC(=O)NCc2ccc(S(N)(=O)=O)cc2)c2ccccc2)cc1`, the cell number change was determined as 5.38%.

For `CN(C)c1ccc(/C=N/NS(=O)(=O)c2ccc(Br)cc2)cc1`, the cell number change is 26.5%. Also, the AC50 under setting [2] was 4.11 µM [rising, single point]. `COc1cccc(C(=O)N2CCN(Cc3ccccc3Br)CC2)c1`: the cell number change stood at 5.96%. In the case of `CN(C)C(=O)c1cc(-c2ccccc2)no1`, the cell number change was -16%. In addition, the AC50 under setting [1] was 0.00461 µM [falling, full curve, poor fit].

Regarding `N#Cc1ccccc1OCCCNC1CCCC1`, the cell number change was -12.3%. Take `CC(=O)Nc1ccc(C(=O)CSc2cc(C)c3cccc(C)c3n2)cc1`: the cell number change was found to be 1.27%. Also, the half-maximal activity concentration (AC50) under setting [1] was 0.58 µM [rising, single point]. Consider `COc1cccc(S(=O)(=O)Nc2cccnc2)c1`, for which the cell number change was 17.5%. In addition, the concentration at half-maximal activity (AC50) under setting [1] is 23.1 µM [falling, partial curve].

As to `CC(C)Cn1cnc2c1c(=O)n(CC(O)c1ccccc1)c(=O)n2CC(C)C` (centres undefined), the cell number change came out at 6.97%. For the same compound, under setting [1], the AC50 is 6.51 µM [rising, single point]. Take `COc1ccc(Cc2nc3ccc(C(=O)N4C[C@@H](C)O[C@@H](C)C4)cc3o2)cc1OC`: the cell number change was -30.4%. Moreover, the AC50 under setting [2] was 29.1 µM [falling, single point]. In the case of `O=C(CSc1nnc(Nc2ccccc2)s1)NCc1cccs1`, the cell number change is -9.44%. In addition, the AC50 under setting [1] is 1.46 µM [falling, full curve, poor fit]. Regarding `COc1ccccc1CCNC(=O)CCSc1nc(-c2ccco2)cc(C(F)(F)F)n1`, the cell number change was -43.9%. The concentration at half-maximal activity (AC50) under setting [2] is 13 µM [falling, partial curve]. For the same compound, under setting [1], the AC50 was 20.6 µM [falling, partial curve].

Take `CC(C)c1ccc2c(c1)C(=O)NC(C)(C)C2`: the cell number change is -28.1%. Under setting [1], the AC50 was 0.731 µM [falling, full curve]. Regarding `Cc1cccc(CSc2nc3c(c(=O)[nH]2)CCCC3)c1`, the cell number change was determined as 18.6%. The concentration at half-maximal activity (AC50) under setting [1] is 1.64 µM [rising, full curve, poor fit]. Take `COc1ccccc1C(=O)NCCC(=O)NCC(c1ccco1)N1CCCCC1` (centres undefined): the cell number change was -0.5%. For the compound `CCOC(=O)N1CCN(C(=O)C2CCN(S(=O)(=O)c3ccc(C)cc3)CC2)CC1`, the cell number change was -3.46%. For the same compound, under setting [1], the half-maximal activity concentration (AC50) is 0.731 µM [falling, single point].

Consider `CC1=CC(C)(C)Nc2ccc(OC(=O)CCN3C(=O)c4ccccc4C3=O)cc21`, for which the cell number change was -73.3%. For the same compound, under setting [2], the concentration at half-maximal activity (AC50) was 20.6 µM [falling, single point]. Further, under setting [1], the half-maximal activity concentration (AC50) is 18.4 µM [falling, single point]. As for `CCCc1cc(=O)[nH]c(SCc2cc(=O)oc3c(C)c(C)ccc23)n1`, the cell number change amounted to 2.52%. Besides, under setting [2], the AC50 was 0.146 µM [falling, full curve, poor fit]. Consider `CCCc1cc(=O)oc2cc(C)cc(OCC(=O)Nc3ccc(S(N)(=O)=O)cc3)c12`, for which the cell number change was 85.5%. Moreover, the AC50 under setting [2] is 29.1 µM [rising, single point]. In addition, the AC50 under setting [1] is 23.1 µM [falling, single point].

`Cc1ccc(CNC(=O)C2CCCN(c3cnccn3)C2)cc1` (centres undefined): the cell number change was 37.3%. Further, the AC50 under setting [2] was 32.6 µM [rising, single point]. As for `Cc1c(O)ccc2c(CN3CCN(Cc4ccccc4)CC3)cc(=O)oc12`, the cell number change came to 6.38%. Under setting [1], the AC50 is 6.51 µM [falling, single point]. Take `CCOc1ccc(OCCN2C(=O)NC(Cc3c[nH]c4ccccc34)C2=O)cc1` (centres undefined): the cell number change turned out to be 97.5%. For the same compound, under setting [2], the AC50 is 29.1 µM [rising, single point]. Turning to `CC(C)Cn1c(O)c(/C=C2\C=NN=C2c2ccccc2)sc1=S`, the cell number change was -18%. For the same compound, under setting [2], the half-maximal activity concentration (AC50) is 3.26 µM [rising, single point]. As to `COc1ccc(Cc2nnc(SCC(=O)Nc3ccc(C)cc3C)[nH]c2=O)cc1`, the cell number change stood at 0.299%. For the same compound, the concentration at half-maximal activity (AC50) under setting [2] is 4.11 µM [falling, single point]. Besides, the AC50 under setting [1] was 4.61 µM [falling, single point]. Turning to `C/C(=N\NC(=O)c1cccc(S(=O)(=O)N2CCCC2)c1)c1ccc(C)cc1`, the cell number change was 21.2%. As for `CC(C)c1cc(CNC(=O)c2ccc(OC3CCN(Cc4ccccn4)CC3)cc2)on1`, the cell number change was -36.3%. The concentration at half-maximal activity (AC50) under setting [2] was 20.6 µM [falling, partial curve]. Moreover, the AC50 under setting [1] is 29.1 µM [falling, single point]. `Cc1ccc(C)c(OCCCNC2CCCC2)c1C`: the cell number change is -27.6%. Besides, the concentration at half-maximal activity (AC50) under setting [1] is 0.58 µM [falling, full curve]. On to `Cn1c(=O)c2c(nc(CN3CCC(C(N)=O)CC3)n2Cc2ccccc2F)n(C)c1=O`, for which the cell number change turned out to be 15.5%. Further, the half-maximal activity concentration (AC50) under setting [1] was 0.0731 µM [falling, single point]. Take `COC(=O)[C@H](Cc1ccccc1)NC(=O)NCc1ccccc1`: the cell number change was -2.11%. Consider `C=CCn1c(COc2ccc(F)cc2)nnc1SCC(=O)N1CC(=O)Nc2ccccc21`, for which the cell number change is -27.3%. In addition, the AC50 under setting [1] was 5.17 µM [falling, full curve, poor fit]. On to `O=C1CN(C(=O)CSc2nc3c(cnn3-c3ccccc3)c(=O)[nH]2)c2ccccc2N1`, for which the cell number change was 0.778%. Also, under setting [1], the AC50 is 0.092 µM [rising, full curve, poor fit]. For the compound `O=c1cc(CNCCCO)c2ccccc2[nH]1`, the cell number change is -0.714%. Also, the AC50 under setting [1] is 0.58 µM [rising, single point]. `CN1/C(=C\C=N\NC(=O)c2cccnc2)C(C)(C)c2ccccc21`: the cell number change is -0.33%. Consider `CCN(CC)C(CNC(=O)CSc1nnnn1-c1ccc(C)c(C)c1)c1ccco1` (centres undefined), for which the cell number change was -14.2%. Also, the AC50 under setting [2] is 5.8 µM [falling, single point]. The AC50 under setting [1] is 3.66 µM [falling, single point]. For `COc1ccc(C)cc1NC(=O)c1nn(C)cc1Br`, the cell number change stood at 24.3%. Also, under setting [2], the concentration at half-maximal activity (AC50) is 0.731 µM [rising, full curve, poor fit].

As for `CSc1cccc(NC(=O)CN(C)S(=O)(=O)c2ccc(F)cc2)c1`, the cell number change amounted to 0.781%. The half-maximal activity concentration (AC50) under setting [1] was 6.51 µM [rising, single point]. Turning to `COc1ccc(NC(=O)COC(=O)c2ccccc2SCC(=O)N2CCCC2)cc1`, the concentration at half-maximal activity (AC50) reads like this: under setting [2], 6.51 µM [rising, single point]; under setting [1], 4.61 µM [rising, single point].

Values taken from PubChem BioAssay AID2685 (National Center for Advancing Translational Sciences (NCATS), 2010).
